# The list does not hold the whole screen: it is rich in T/C values a quarter to a half above the control, in often repeated tests (any T/C) and in doses without a T/C. Other doses and runs of a compound stand elsewhere. T/C gives the treated animals as a percentage of the vehicle group. Some doses have a count of surviving animals in place of a T/C: the source holds a T/C of zero for them, seemingly a mark for toxic or unscored doses. Some survivor counts are full or nearly so, which does not show that the dose was tolerated: the source hardly ever lists a survival T/C far under the control, and the zero likely stands for such cases as well. Counts of survivors are from the toxicity check (mostly the fifth day) where no day follows; animals may have died later. Schedules are NCI's codes, taken here to give the interval after Q, in days (D) or hours (H), and the number of doses after X. Some entries hold several experiments; the values are given in rising order. Signs of the kind (2×) stand for listed records that agree. Some schedules carry Z or #; the key to these is not given. Where survival is the endpoint, the PubChem record calls one and a half times the control and up active, and a quarter to a half above the control has no call in these data; cut-offs in other NCI protocols can differ.
# Test system: L1210 leukemia ip in BDF1 mice, survival T/C
# Assay: NCI In Vivo Anticancer Drug Screen. Data for tumor model L1210 Leukemia (intraperitoneal) in B6D2F1 (BDF1) mice
# Details: T/C endpoint: mean survival time, higher T/C = longer survival
# [1] = dose: 100.0 mg/kg/injection, schedule: Q01DX009 (ip), vehicle: saline with Tween-80
# [2] = dose: 200.0 mg/kg/injection, schedule: Q01DX009 (ip), vehicle: saline with Tween-80
# [3] = dose: 400.0 mg/kg/injection, schedule: Q04DX003 (ip), vehicle: saline with Tween-80
# [4] = dose: 100.0 mg/kg/injection, schedule: Q04DX003 (ip), vehicle: saline with Tween-80
# [5] = dose: 200.0 mg/kg/injection, schedule: Q04DX003 (ip), vehicle: saline with Tween-80
# [6] = dose: 400.0 mg/kg/injection, schedule: Q04DX003 (ip), vehicle: Klucel (hydroxypropylcellulose) (HPC)
# [7] = dose: 400.0 mg/kg/injection, schedule: Q01DX001 (ip), vehicle: saline
# [8] = dose: 200.0 mg/kg/injection, schedule: Q01DX009 (ip), vehicle: saline
# [9] = dose: 200.0 mg/kg/injection, schedule: Q04DX003 (ip), vehicle: Klucel (hydroxypropylcellulose) (HPC)
# [10] = dose: 100.0 mg/kg/injection, schedule: Q04DX003 (ip), vehicle: Klucel (hydroxypropylcellulose) (HPC)
# [11] = dose: 200.0 mg/kg/injection, schedule: Q01DX001 (ip), vehicle: saline
# [12] = dose: 400.0 mg/kg/injection, schedule: Q01DX009 (ip), vehicle: Klucel (hydroxypropylcellulose) (HPC)
# [13] = dose: 300.0 mg/kg/injection, schedule: Q01DX001 (ip), vehicle: other
# [14] = dose: 100.0 mg/kg/injection, schedule: Q01DX009 (ip), vehicle: Klucel (hydroxypropylcellulose) (HPC)
# [15] = dose: 80.0 mg/kg/injection, schedule: Q01DX001 (ip), vehicle: saline
smiles,measurement,setting,value
Oc1c(Br)cc(Br)cc1C=NCC1CCC(CN=Cc2cc(Br)cc(Br)c2O)CC1 (configuration not stated),survivor count,[1],3 of 3
same,survivor count,[2],3 of 3 and 6 of 6
N#Cc1ncc(-c2ccccc2)nc1Cl,survivor count,[3],6 of 6
CC[n+]1ccc(Nc2ccc(NC(=O)c3ccc([N+](=O)[O-])cc3)cc2)cc1,survivor count,[2],6 of 6
same,survivor count,"dose: 400.0 mg/kg/injection, schedule: Q01DX009 (ip), vehicle: saline with Tween-80",0 of 6
O=C(Nc1cccc(C(F)(F)F)c1)c1cccc(C(=O)Nc2cccc(C(F)(F)F)c2)c1,survivor count,[4],6 of 6
same,survivor count,[5],6 of 6
same,survivor count,[3],6 of 6
CC1=C(C)C(=O)OC1=O,survivor count,[6],6 of 6
CCN(CC)CCOC(=O)c1[nH]cnc1/N=N\N(C)C,survivor count,[7],2 of 4
O=C(/C=C\c1ccccc1)N1CCc2ccccc2C1,survivor count,"dose: 150.0 mg/kg/injection, schedule: Q04DX003 (ip), vehicle: saline",6 of 6
COC1CC2C[CH]([Hg][Cl])C1C2 (configuration not stated),survivor count,"dose: 50.0 mg/kg/injection, schedule: Q01DX009 (ip), vehicle: saline with Tween-80",1 of 3
same,survivor count,[1],0 of 3
same,survivor count,[2],0 of 3
CC(C)(C)OOC(=O)c1ccccc1,survivor count,"dose: 150.0 mg/kg/injection, schedule: Q01DX009 (ip), vehicle: Klucel (hydroxypropylcellulose) (HPC)",6 of 6
same,survivor count,"dose: 300.0 mg/kg/injection, schedule: Q01DX009 (ip), vehicle: Klucel (hydroxypropylcellulose) (HPC)",6 of 6
CC(=O)C=P(c1ccccc1)(c1ccccc1)c1ccccc1,survivor count,"dose: 400.0 mg/kg/injection, schedule: Q01DX001 (ip), vehicle: carboxymethylcellulose (CMC)",0 of 4
ClC(CN1CCCCC1)C(Cl)c1ccccc1 (configuration not stated),survivor count,[8],5 of 6
C[As](=O)(O)c1ccc(N)cc1,survivor count,[9],3 of 6
same,survivor count,[6],0 of 6
NC(=S)NN=C1CCCCCCC1,survivor count,"dose: 14.0 mg/kg/injection, schedule: Q01DX Z (ip), vehicle: methylcellulose (MC)",3 of 7
same,survivor count,"dose: 65.0 mg/kg/injection, schedule: Q01DX Z (ip), vehicle: methylcellulose (MC)",0 of 7
same,survivor count,"dose: 108.0 mg/kg/injection, schedule: Q01DX Z (ip), vehicle: methylcellulose (MC)",0 of 7
Cc1cc(=O)[nH]c(N2C(=O)c3ccccc3C2=O)n1,survivor count,[10],6 of 6
O=C(O)C#Cc1ccccc1,survivor count,[11],1 of 6
same,survivor count,[7],2 of 6
O=[N+]([O-])c1ccccc1SNc1ccc(NSc2ccccc2[N+](=O)[O-])cc1,survivor count,"dose: 25.0 mg/kg/injection, schedule: Q01DX001 (ip), vehicle: saline with Tween-80",6 of 6
same,survivor count,"dose: 50.0 mg/kg/injection, schedule: Q01DX001 (ip), vehicle: saline with Tween-80",6 of 6
same,survivor count,"dose: 100.0 mg/kg/injection, schedule: Q01DX001 (ip), vehicle: saline with Tween-80",6 of 6
COc1ccccc1NC(=O)NCCN1CCCC1,survivor count,[12],0 of 6
CN(CC#N)CC#N,survivor count,"dose: 100.0 mg/kg/injection, schedule: Q01DX009 (ip), vehicle: saline",0 of 6 and 2 of 6
same,survivor count,[8],0 of 6
same,survivor count,"dose: 400.0 mg/kg/injection, schedule: Q01DX009 (ip), vehicle: saline",0 of 6
O=[N+]([O-])c1ccc(N/N=C/C23CC4CC(CC(C4)C2)C3)c([N+](=O)[O-])c1,survivor count,"dose: 200.0 mg/kg/injection, schedule: Q01DX001 (ip), vehicle: Klucel (hydroxypropylcellulose) (HPC)",3 of 3
CC(C)CC(C)NCC(C)OC(=O)c1ccc(N)cc1 (configuration not stated),survivor count,"dose: 150.0 mg/kg/injection, schedule: Q01DX001 (ip), vehicle: other",1 of 6
same,survivor count,[13],0 of 6
CCOC(=O)C(C(=O)OCC)C1c2ccccc2C(=NO)c2ccccc21 (configuration not stated),survivor count,[6],6 of 6
CCN(CC)CCN1C(=O)CN=C(c2ccccn2)c2cc(Cl)ccc21,survivor count,[3],1 of 6
O=C(NC(=O)C(Cl)Cl)Nc1cccc2c1-c1ccccc1C2,survivor count,[12],3 of 6
CCCC1(CC)C(=O)NC(=S)N(C)C1=O (configuration not stated),survivor count,[13],3 of 6
O=[N+]([O-])c1cc(S(=O)(=O)c2ccc(Cl)c([N+](=O)[O-])c2)ccc1Cl,survivor count,[14],6 of 6
CC(=O)c1sccc1C,survivor count,"dose: 50.0 mg/kg/injection, schedule: Q04DX003 (ip), vehicle: Klucel (hydroxypropylcellulose) (HPC)",3 of 6
same,survivor count,[10],0 of 6
same,survivor count,[9],0 of 6
same,survivor count,[6],0 of 6
CNc1cccc([N+](=O)[O-])c1,survivor count,[7],2 of 4
CC(=O)OC1CCCCC1NC(=O)NCCCl (configuration not stated),survivor count,"dose: 100.0 mg/kg/injection, schedule: Q04DX002 (ip), vehicle: Klucel (hydroxypropylcellulose) (HPC)",1 of 3
same,survivor count,"dose: 200.0 mg/kg/injection, schedule: Q04DX002 (ip), vehicle: Klucel (hydroxypropylcellulose) (HPC)",1 of 3
CCCCSCc1nc2nc(Cl)c(Cl)nc2[nH]1,survivor count,[2],3 of 6
Cc1c(CCO)c(=O)n2n1CCCC2,survivor count,[13],0 of 6
COC(=O)/C=C(\C(=O)OC)n1ccccc1=O,survivor count,"dose: 75.0 mg/kg/injection, schedule: Q01DX001 (ip), vehicle: saline",0 of 6
same,survivor count,[15],1 of 6
same,survivor count,"dose: 150.0 mg/kg/injection, schedule: Q01DX001 (ip), vehicle: saline",0 of 6
same,survivor count,"dose: 300.0 mg/kg/injection, schedule: Q01DX001 (ip), vehicle: saline",0 of 6
O=C(Nc1ccc(Cl)cc1)OCC#CCOC(=O)Nc1ccc(Cl)cc1,survivor count,[5],6 of 6
O=C(O)C(O)C(O)C(=O)O.[Cu+2] (configuration not stated),survivor count,[15],0 of 6
CN=C1CC2CCC(C2)C1(O)c1ccccc1 (configuration not stated),survivor count,[11],2 of 6
same,survivor count,[7],0 of 6
COC(C#N)C(O)(c1ccccc1)c1ccccc1 (configuration not stated),survivor count,[13],3 of 6
Fc1nc(F)nc(F)n1,survivor count,[14],0 of 6
same,survivor count,"dose: 200.0 mg/kg/injection, schedule: Q01DX009 (ip), vehicle: Klucel (hydroxypropylcellulose) (HPC)",0 of 6
same,survivor count,[12],0 of 6
CN(C)P1(=O)OCCN1N (configuration not stated),survivor count,"dose: 400.0 mg/kg/injection, schedule: Q04DX003 (ip), vehicle: saline",1 of 6
O=C(CCCCl)CC(O)(C(F)(F)Cl)C(F)(F)Cl,survivor count,[3],6 of 6
CCCC/C(=N\N=C(N)N)c1ccc(F)cc1,survivor count,"dose: 60.0 mg/kg/injection, schedule: Q01DX Z (ip), vehicle: methylcellulose (MC)",1 of 6
same,survivor count,"dose: 60.0 mg/kg/injection, schedule: Q01DX Z (oral), vehicle: methylcellulose (MC)",1 of 6
same,survivor count,"dose: 120.0 mg/kg/injection, schedule: Q01DX Z (ip), vehicle: methylcellulose (MC)",0 of 6
same,survivor count,"dose: 120.0 mg/kg/injection, schedule: Q01DX Z (oral), vehicle: methylcellulose (MC)",1 of 6
O=C(CCl)N=c1cc(-c2ccc(Cl)cc2)ss1,survivor count,"dose: 200.0 mg/kg/injection, schedule: Q04DX002 (ip), vehicle: saline",0 of 3
same,survivor count,"dose: 400.0 mg/kg/injection, schedule: Q04DX002 (ip), vehicle: saline",0 of 3
O=[N+]([O-])c1ccc(S(=O)CCl)cc1 (configuration not stated),survivor count,[6],2 of 6
Cc1cccc(C(=O)NNC(=O)C(=O)NNC(=O)c2cccc(C)c2)c1,T/C,[4],"93, 95 (2×), 97 % of control"
same,T/C,[5],"90, 103, 104 % of control"
same,survivor count,[5],6 of 6
same,T/C,[3],"90, 92 (2×), 98 % of control"
CC(NC(=O)NCCCl)c1ccccc1 (configuration not stated),survivor count,[5],2 of 6
same,survivor count,[3],0 of 6 (2×)
